Data: article PMC9609924, “In Vitro Characterization of Inhibitors for Lung A549 and Leukemia K562 Cell Lines from Fungal Transformation of Arecoline Supported by In Silico Docking to M3-mAChR and ADME Prediction” (Pharmaceuticals, 2022)

How the values were obtained:
[1] = system: non-small-cell lung cancer A549 cell line; assay: cells; details: Homo sapiens, A549, 48 h, read-out: Cytotoxicity IC50 ± SD, Non-Small-Cell Lung Cancer A549
Description: Cell lines were obtained from the American Type Culture Collection (ATCC). Cells were cultured using Dulbecco’s Modified Eagle’s Medium (DMEM) (Invitrogen/Life Technologies, Waltham, MA, USA) supplemented with 10% fetal bovine serum (FBS, Hyclone, Logan, UT, USA), 10 µg/mL of insulin (Sigma Aldrich, St. Louis, MO, USA) and 1% mixture of penicillin and streptomycin. After incubation for 48 h with the isolated compounds, the viability of cells was measured using an MTT assay to determine the toxic concentration for each compound using the microplate reader according to the published procedures.

[2] = system: normal lung cell WI38; assay: MTT cytotoxicity assay, normal lung cell WI38; type: cell-based; details: IC50 against normal WI38 divided by IC50 against A549
Description: (§1) The selectivity index identifies the selectivity of the tested compounds toward the cancer cell line and is calculated by dividing the IC50 against the normal cell line by the IC50 against the cancer cells.

[3] = system: normal blood cell PCS-800-016; assay: MTT cytotoxicity assay, normal blood cell PCS-800-016; type: cell-based; details: IC50 against normal PCS-800-016 divided by IC50 against K562
Description: as §1

## CN[C@@H]1C[C@H]2O[C@@](C)([C@@H]1OC)n1c3ccccc3c3c4c(c5c6ccccc6n2c5c31)C(=O)NC4 [Staurosporine, reference compound]
[1]
  IC50: 10.5 ± 0.64 µM
[2]
  SI (Lung), selectivity index: 1.57
[3]
  SI (Blood Cell), selectivity index: 2.56
